No constants are given. Whether binding was seen depends on the method and setting. Binding seen in cells or lysates may run through a third protein. These calls come from enrichment with a bait or labelling near it, and not all partners need be listed. For some of these results: A no says only that the protein was not detected with the bait.
T1: NEK1 (endogenous) (human (endogenous in ARPE-19, HeLa, HEK293, U2OS)) (UniProt Q96PY6)
T1 sequence: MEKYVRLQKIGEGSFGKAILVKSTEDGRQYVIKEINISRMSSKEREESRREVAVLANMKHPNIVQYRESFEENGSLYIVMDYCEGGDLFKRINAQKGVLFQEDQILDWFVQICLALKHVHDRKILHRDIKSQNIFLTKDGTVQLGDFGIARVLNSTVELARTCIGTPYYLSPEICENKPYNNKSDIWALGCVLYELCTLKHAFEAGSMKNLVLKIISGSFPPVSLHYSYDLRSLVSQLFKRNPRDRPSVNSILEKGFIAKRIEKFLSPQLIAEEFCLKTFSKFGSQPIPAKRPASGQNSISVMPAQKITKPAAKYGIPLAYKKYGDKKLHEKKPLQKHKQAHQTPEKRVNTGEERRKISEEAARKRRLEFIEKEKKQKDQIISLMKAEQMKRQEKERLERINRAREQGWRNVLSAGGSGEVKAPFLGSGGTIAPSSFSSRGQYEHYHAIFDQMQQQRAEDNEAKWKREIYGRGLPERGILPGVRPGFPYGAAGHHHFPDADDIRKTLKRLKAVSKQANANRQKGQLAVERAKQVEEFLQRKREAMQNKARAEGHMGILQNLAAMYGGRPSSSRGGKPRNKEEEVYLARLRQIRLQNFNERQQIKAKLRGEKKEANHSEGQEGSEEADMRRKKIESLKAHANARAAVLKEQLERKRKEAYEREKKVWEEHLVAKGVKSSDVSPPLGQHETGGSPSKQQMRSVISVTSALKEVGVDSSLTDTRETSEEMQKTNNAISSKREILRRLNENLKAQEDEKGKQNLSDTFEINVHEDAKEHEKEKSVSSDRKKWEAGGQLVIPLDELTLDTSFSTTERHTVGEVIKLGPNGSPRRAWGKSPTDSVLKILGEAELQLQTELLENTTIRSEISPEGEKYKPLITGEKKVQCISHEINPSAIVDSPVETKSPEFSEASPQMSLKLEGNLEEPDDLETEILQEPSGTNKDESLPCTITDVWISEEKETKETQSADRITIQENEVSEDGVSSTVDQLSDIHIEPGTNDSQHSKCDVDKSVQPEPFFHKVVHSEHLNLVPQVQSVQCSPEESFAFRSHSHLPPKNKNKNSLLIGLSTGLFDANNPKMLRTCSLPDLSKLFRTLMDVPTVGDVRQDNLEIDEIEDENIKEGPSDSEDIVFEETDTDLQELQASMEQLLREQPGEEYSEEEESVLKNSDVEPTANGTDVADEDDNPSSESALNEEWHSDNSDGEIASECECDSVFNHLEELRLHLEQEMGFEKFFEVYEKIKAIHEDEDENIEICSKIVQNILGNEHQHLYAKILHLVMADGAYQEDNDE

T2: C21ORF2 (endogenous) (human (endogenous in ARPE-19, HeLa, HEK293, U2OS)) (UniProt O43822)
T2 sequence: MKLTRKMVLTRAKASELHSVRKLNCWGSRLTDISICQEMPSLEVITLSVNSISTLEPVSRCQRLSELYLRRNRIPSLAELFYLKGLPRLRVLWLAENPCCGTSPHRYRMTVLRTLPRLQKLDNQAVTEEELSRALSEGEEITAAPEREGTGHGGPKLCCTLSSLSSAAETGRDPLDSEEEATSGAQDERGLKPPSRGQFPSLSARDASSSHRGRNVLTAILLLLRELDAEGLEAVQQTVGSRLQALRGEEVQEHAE


Tests used:
[1] = biological target: T1, NEK1 (endogenous) (human (endogenous in ARPE-19, HeLa, HEK293, U2OS)); experiment: affinity purification with mass spectrometry
[2] = biological target: T2, C21ORF2 (endogenous) (human (endogenous in ARPE-19, HeLa, HEK293, U2OS)); experiment: affinity purification with mass spectrometry

Row | binding [1] | binding [2] | Molecule
1 | binds |  | C21ORF2 (endogenous) (protein, UniProt O43822-1 1-256) MKLTRKMVLTRAKASELHSVRKLNCWGSRLTDISICQEMPSLEVITLSVNSISTLEPVSRCQRLSELYLRRNRIPSLAELFYLKGLPRLRVLWLAENPCCGTSPHRYRMTVLRTLPRLQKLDNQAVTEEELSRALSEGEEITAAPEREGTGHGGPKLCCTLSSLSSAAETGRDPLDSEEEATSGAQDERGLKPPSRGQFPSLSARDASSSHRGRNVLTAILLLLRELDAEGLEAVQQTVGSRLQALRGEEVQEHAE
2 |  | binds | NEK1 (endogenous) (enzyme, UniProt Q96PY6-3 1-1286) MEKYVRLQKIGEGSFGKAILVKSTEDGRQYVIKEINISRMSSKEREESRREVAVLANMKHPNIVQYRESFEENGSLYIVMDYCEGGDLFKRINAQKGVLFQEDQILDWFVQICLALKHVHDRKILHRDIKSQNIFLTKDGTVQLGDFGIARVLNSTVELARTCIGTPYYLSPEICENKPYNNKSDIWALGCVLYELCTLKHAFEAGSMKNLVLKIISGSFPPVSLHYSYDLRSLVSQLFKRNPRDRPSVNSILEKGFIAKRIEKFLSPQLIAEEFCLKTFSKFGSQPIPAKRPASGQNSISVMPAQKITKPAAKYGIPLAYKKYGDKKLHEKKPLQKHKQAHQTPEKRVNTGEERRKISEEAARKRRLEFIEKEKKQKDQIISLMKAEQMKRQEKERLERINRAREQGWRNVLSAGGSGEVKAPFLGSGGTIAPSSFSSRGQYEHYHAIFDQMQQQRAEDNEAKWKREIYGRGLPERGILPGVRPGFPYGAAGHHHFPDADDIRKTLKRLKAVSKQANANRQKGQLAVERAKQVEEFLQRKREAMQNKARAEGHMGILQNLAAMYGGRPSSSRGGKPRNKEEEVYLARLRQIRLQNFNERQQIKAKLRGEKKEANHSEGQEGSEEADMRRKKIESLKAHANARAAVLKEQLERKRKEAYEREKKVWEEHLVAKGVKSSDVSPPLGQHETGGSPSKQQMRSVISVTSALKEVGVDSSLTDTRETSEEMQKTNNAISSKREILRRLNENLKAQEDEKGKQNLSDTFEINVHEDAKEHEKEKSVSSDRKKWEAGGQLVIPLDELTLDTSFSTTERHTVGEVIKLGPNGSPRRAWGKSPTDSVLKILGEAELQLQTELLENTTIRSEISPEGEKYKPLITGEKKVQCISHEINPSAIVDSPVETKSPEFSEASPQMSLKLEGNLEEPDDLETEILQEPSGTNKDESLPCTITDVWISEEKETKETQSADRITIQENEVSEDGVSSTVDQLSDIHIEPGTNDSQHSKCDVDKSVQPEPFFHKVVHSEHLNLVPQVQSVQCSPEESFAFRSHSHLPPKNKNKNSLLIGLSTGLFDANNPKMLRTCSLPDLSKLFRTLMDVPTVGDVRQDNLEIDEIEDENIKEGPSDSEDIVFEETDTDLQELQASMEQLLREQPGEEYSEEEESVLKNSDVEPTANGTDVADEDDNPSSESALNEEWHSDNSDGEIASECECDSVFNHLEELRLHLEQEMGFEKFFEVYEKIKAIHEDEDENIEICSKIVQNILGNEHQHLYAKILHLVMADGAYQEDNDE

Further lines, the molecule ahead of its results:

Row | Molecule | binding [1] | binding [2]
3 | C19ORF53 (endogenous) (from UniProt Q9UNZ5 1-99) | no binding | 
4 | COL8A1 (endogenous) (from UniProt P27658 28-744) | no binding | 

— article doi:10.1101/2022.08.31.505651
